Results reported in PubChem BioAssay AID330 (DTP/NCI, 2004).
The list is a part of this screen's results and no random one: it gathers tests that were run many times, whatever their T/C, doses with no T/C, and many T/C values between a quarter and a half above the control. Further doses and runs are listed elsewhere. T/C is the treated group as % of the vehicle group. Some doses have a count of surviving animals in place of a T/C: the source holds a T/C of zero for them, seemingly a mark for toxic or unscored doses. Some survivor counts are full or nearly so, which does not show that the dose was tolerated: survival well below the control is almost never listed, so the zero probably covers shortened survival too. Survivors were counted at the toxicity check, usually on the fifth day, unless a day is given; later deaths do not show. Schedules are NCI's codes, taken here to give the interval after Q, in days (D) or hours (H), and the number of doses after X. Some entries hold several experiments; the results are listed from low to high. For survival time, this PubChem deposit counts one and a half times the control or more as active, and values a quarter to a half above the control carry no call in these data; other NCI protocols may use other cut-offs.

Test system: P388 leukemia ip, CD2F1 mice, survival T/C
Experiment: NCI In Vivo Anticancer Drug Screen. Data for tumor model P388 Leukemia (intraperitoneal) in CD2F1 (CDF1) mice
Conditions: T/C endpoint: median survival time, higher T/C = longer survival
[1] = dose: 400.0 mg/kg/injection, schedule: Q01DX001 (ip), vehicle: saline with Tween-80
[2] = dose: 200.0 mg/kg/injection, schedule: Q01DX005 (ip), vehicle: Klucel (hydroxypropylcellulose) (HPC)
[3] = dose: 200.0 mg/kg/injection, schedule: Q01DX009 (ip), vehicle: saline with Tween-80
[4] = dose: 240.0 mg/kg/injection, schedule: Q01DX005 (ip), vehicle: saline with Tween-80
[5] = dose: 100.0 mg/kg/injection, schedule: Q01DX009 (ip), vehicle: saline with Tween-80

## O=C1C(CO)=CC(O)[C@@H]2O[C@H]12 (mixture of isomers)
dose: 12.0 mg/kg/injection, schedule: Q01DX005 (ip), vehicle: saline with Tween-80
  T/C: 140 % of control
dose: 24.0 mg/kg/injection, schedule: Q01DX005 (ip), vehicle: saline with Tween-80
  T/C: 140 % of control
dose: 48.0 mg/kg/injection, schedule: Q01DX005 (ip), vehicle: saline with Tween-80
  T/C: 129 and 135 % of control
dose: 96.0 mg/kg/injection, schedule: Q01DX005 (ip), vehicle: saline with Tween-80
  survivor count: 0 of 5 and 0 of 6
dose: 192.0 mg/kg/injection, schedule: Q01DX005 (ip), vehicle: saline with Tween-80
  survivor count: 0 of 6
dose: 384.0 mg/kg/injection, schedule: Q01DX005 (ip), vehicle: saline with Tween-80
  survivor count: 0 of 6

## CCCCn1c(Cl)c(/C=N\Nc2ccc([N+](=O)[O-])cc2)c2ccccc21
dose: 50.0 mg/kg/injection, schedule: Q01DX001 (ip), vehicle: saline with Tween-80
  survivor count: 6 of 6
dose: 200.0 mg/kg/injection, schedule: Q01DX001 (ip), vehicle: saline with Tween-80
  survivor count: 3 of 6
[1]
  survivor count: 3 of 6

## COC(=O)C1=C(/C=C/C(C)=O)NC(C)=C(C(=O)OC(C)C)C1c1ccccc1Cl (stereo not drawn)
[2]
  T/C: 134 % of control
dose: 400.0 mg/kg/injection, schedule: Q01DX005 (ip), vehicle: Klucel (hydroxypropylcellulose) (HPC)
  survivor count: 1 of 6

## CCCCN(CCCC)C(=N)c1c(OC)cccc1OC
dose: 6.25 mg/kg/injection, schedule: Q01DX005 (ip), vehicle: saline
  survivor count: 2 of 5
dose: 12.5 mg/kg/injection, schedule: Q01DX005 (ip), vehicle: saline
  survivor count: 0 of 5
dose: 25.0 mg/kg/injection, schedule: Q01DX005 (ip), vehicle: saline
  survivor count: 0 of 5
dose: 50.0 mg/kg/injection, schedule: Q01DX005 (ip), vehicle: saline
  survivor count: 0 of 5
dose: 100.0 mg/kg/injection, schedule: Q01DX005 (ip), vehicle: saline
  survivor count: 0 of 5
dose: 200.0 mg/kg/injection, schedule: Q01DX005 (ip), vehicle: saline
  survivor count: 0 of 5

## CN1CC=Nc2c1nc(N)[nH]c2=O
[3]
  survivor count: 6 of 6

## [Mn]=[Se]
dose: 120.0 mg/kg/injection, schedule: Q01DX005 (ip), vehicle: acid diluted with saline
  survivor count: 4 of 6
dose: 240.0 mg/kg/injection, schedule: Q01DX005 (ip), vehicle: acid diluted with saline
  survivor count: 0 of 6

## CN(C)P1(N(C)C)=NP(N(C)C)(N(C)C)=NP(N(C)C)(N(C)C)=N1
dose: 100.0 mg/kg/injection, schedule: Q04DX003 (ip), vehicle: saline
  survivor count: 3 of 6
dose: 200.0 mg/kg/injection, schedule: Q04DX003 (ip), vehicle: saline
  survivor count: 2 of 6
dose: 400.0 mg/kg/injection, schedule: Q04DX003 (ip), vehicle: saline
  survivor count: 0 of 6

## CC(CN)OC12CC3CC(CC(C3)C1)C2 (stereo not drawn)
[4]
  survivor count: 0 of 6

## CC(C)(C)N(C(=O)OCC1c2ccccc2-c2ccccc21)C(CO)C(=O)O (stereo not drawn)
[2]
  survivor count: 2 of 6

## Cc1cc(C)c2c(c1N)C(=O)CCO2
dose: 60.0 mg/kg/injection, schedule: Q01DX005 (ip), vehicle: saline with Tween-80
  survivor count: 4 of 6
dose: 120.0 mg/kg/injection, schedule: Q01DX005 (ip), vehicle: saline with Tween-80
  survivor count: 2 of 6
[4]
  survivor count: 0 of 6

## C[Si]1(C)O[Si](C)(C)N(N)P(=S)(Oc2ccccc2)N1N
dose: 100.0 mg/kg/injection, schedule: Q01DX005 (ip), vehicle: saline with Tween-80
  survivor count: 0 of 5
dose: 200.0 mg/kg/injection, schedule: Q01DX005 (ip), vehicle: saline with Tween-80
  survivor count: 0 of 5

## CS(=O)(=O)Nc1ccc(Nc2c3ccccc3nc3cc(N)ccc23)cc1
dose: 100.0 mg/kg/injection, schedule: Q04DX003 (ip), vehicle: saline with Tween-80
  survivor count: 2 of 6
dose: 200.0 mg/kg/injection, schedule: Q04DX003 (ip), vehicle: saline with Tween-80
  survivor count: 3 of 6
dose: 400.0 mg/kg/injection, schedule: Q04DX003 (ip), vehicle: saline with Tween-80
  survivor count: 0 of 6

## CCOC(=O)C(N)C[S][Sn]([CH3])([CH3])[Cl] (stereo not drawn)
dose: 25.0 mg/kg/injection, schedule: Q01DX009 (ip), vehicle: saline with Tween-80
  T/C: 129 % of control
[5]
  survivor count: 4 of 6
[3]
  survivor count: 0 of 6

## Nc1cc2c3c(cccc3c1)C(=O)N2
[1]
  survivor count: 3 of 6

## CCN1CCCC(Nc2cc(C)nc(/N=C(/N)Nc3ccc(Cl)c(Cl)c3)n2)C1 (stereo not drawn)
dose: 25.0 mg/kg/injection, schedule: Q01DX009 (ip), vehicle: water
  survivor count: 6 of 6
dose: 50.0 mg/kg/injection, schedule: Q01DX009 (ip), vehicle: water
  survivor count: 1 of 6 and 4 of 6
dose: 100.0 mg/kg/injection, schedule: Q01DX009 (ip), vehicle: water
  survivor count: 0 of 6
dose: 200.0 mg/kg/injection, schedule: Q01DX009 (ip), vehicle: water
  survivor count: 0 of 6

## CCSCCC(N)C(=O)O (stereo not drawn)
[5]
  survivor count: 4 of 6
[3]
  survivor count: 4 of 6
dose: 400.0 mg/kg/injection, schedule: Q01DX009 (ip), vehicle: saline with Tween-80
  survivor count: 4 of 6

## COc1ccc2nccc(NCCCN3CCN(CCCNc4ccnc5ccc(OC)cc45)CC3)c2c1
dose: 30.0 mg/kg/injection, schedule: Q01DX005 (ip), vehicle: water
  survivor count: 0 of 6 and 4 of 6
dose: 60.0 mg/kg/injection, schedule: Q01DX005 (ip), vehicle: water
  survivor count: 0 of 6
dose: 120.0 mg/kg/injection, schedule: Q01DX005 (ip), vehicle: water
  survivor count: 1 of 6
dose: 240.0 mg/kg/injection, schedule: Q01DX005 (ip), vehicle: water
  survivor count: 0 of 6
